From PMC11676693, “Population Pharmacokinetic and Pharmacodynamic Study of Palbociclib in Children and Young Adults with Recurrent, Progressive, or Refractory Brain Tumors” (Pharmaceutics, 2024)

Test system: proliferating neutrophils in the bone marrow compartment (ANC)
Test: Population pharmacodynamic model of ANC (neutrophil dynamics)
Format: in vivo, children and young adults
Experimental: A complete blood count (CBC) with differential was performed pre-therapy, weekly during course 1, and then weekly during courses 2 to 26. The CBC provided platelet and absolute neutrophil counts (ANCs).
The model describing the ANC and platelet dynamics has been previously described. The model for the ANC consisted of a bone marrow compartment with proliferating neutrophils, three transient compartments that represent the maturation process of the neutrophils from blasts to circulating neutrophils, and a circulating neutrophil compartment. The model included the negative feedback effects of endogenous G-CSF, which affected the growth rate of proliferating cells in a manner inversely proportional to the concentration of circulating neutrophils. We assumed that palbociclib only affected the proliferating neutrophils in the bone marrow compartment. We used a similar structural model for platelet dynamics. The model describing the neutrophil dynamics is shown in Equations (1)–(5) and Figure S1. (1) NPBM/dt=kinKM/KM+NcircIC50n/IC50n+Cpalblociclibn−kbpNPBM (2) dNT1/dt=kbpNPBM−NT1 (3) dNT2/dt=kbpNT1−NT2 (4) dNT3/dt=kbpNT2−NT3 (5) dNcirc/dt=kpbNT3−koutNcirc
The model parameters were as follows: NPBM: proliferating bone marrow stem cells; NT1, NT2, and NT3: transient compartments describing the maturation phases of the neutrophils; Ncirc: circulating neutrophils. Note that we were only able to observe this compartment. […]
The parameters for the pharmacodynamic model were estimated using nonlinear mixed-effects modeling with the SAEM algorithm as implemented in the Monolix® software version 2023R1 (Lixoft, Antony, France). The palbociclib pharmacokinetics were fixed to each individual’s post hoc estimated parameters (as determined above). […] A proportional residual error model was used to quantify the unexplained variability of the model. […]

For `CC(=O)c1c(C)c2cnc(Nc3ccc(N4CCNCC4)cn3)nc2n(C2CCCC2)c1=O` [palbociclib], the “kbp (transition rate between transient compartments)” value (ANC model, population estimate) was 0.78 day⁻¹, the “kin (stem cell proliferation rate)” value (ANC model, population estimate) was 0.90 day⁻¹ and the “MTT (time for committed stem cells to pass through the maturation compartments)” value (estimated from current study) was 5.12 days.
